From PubChem BioAssay AID248 (DTP/NCI, 2004)
The list shows only some results of the screen, not a fair sample: it covers a few groups of compounds. Not every dose and run of a compound is shown. T/C: endpoint of the treated group in % of that of the vehicle group. For survival time, this PubChem deposit counts one and a half times the control or more as active, and values a quarter to a half above the control carry no call in these data; other NCI protocols may use other cut-offs. Some T/C values are marked as having no survivor count here; that says nothing about deaths at the dose. Schedules are NCI's codes, taken here to give the interval after Q, in days (D) or hours (H), and the number of doses after X. Some entries hold several experiments; the values are given in rising order.

Test system: L1210 leukemia ip in BDF1 mice, survival T/C
Experiment: NCI In Vivo Anticancer Drug Screen. Data for tumor model L1210 Leukemia (intraperitoneal) in B6D2F1 (BDF1) mice
Conditions: T/C endpoint: mean survival time, higher T/C = longer survival
[1] = dose: 25.0 mg/kg/injection, schedule: Q04DX003 (ip), vehicle: saline with Tween-80
[2] = dose: 50.0 mg/kg/injection, schedule: Q04DX003 (ip), vehicle: saline with Tween-80
[3] = dose: 100.0 mg/kg/injection, schedule: Q04DX003 (ip), vehicle: saline with Tween-80
[4] = dose: 25.0 mg/kg/injection, schedule: Q04DX003 (ip), vehicle: Klucel (hydroxypropylcellulose) (HPC)
[5] = dose: 50.0 mg/kg/injection, schedule: Q01DX009 (ip), vehicle: Klucel (hydroxypropylcellulose) (HPC)
[6] = dose: 50.0 mg/kg/injection, schedule: Q04DX003 (ip), vehicle: Klucel (hydroxypropylcellulose) (HPC)
[7] = dose: 0.75 mg/kg/injection, schedule: Q01DX009 (ip), vehicle: saline
[8] = dose: 1.5 mg/kg/injection, schedule: Q01DX009 (ip), vehicle: saline
[9] = dose: 3.0 mg/kg/injection, schedule: Q01DX009 (ip), vehicle: saline
[10] = dose: 100.0 mg/kg/injection, schedule: Q04DX003 (ip), vehicle: saline

## O=C(CCN1CCC(OC(=O)C(O)(c2ccccc2)c2ccccc2)CC1)NCc1ccccc1
[1]
  T/C: 112 % of control [survivor count not shown]
[2]
  T/C: 96 % of control [survivor count not shown]
[3]
  T/C: 87 [survivor count not shown] and 92 % of control [survivor count not shown]

## CN1CCCC(COC(=O)C(O)(c2ccccc2)c2ccccc2)C1 (stereo not given)
dose: 25.0 mg/kg/injection, schedule: Q01DX009 (ip), vehicle: Klucel (hydroxypropylcellulose) (HPC)
  T/C: 94 % of control [survivor count not shown]
[4]
  T/C: 103 % of control [survivor count not shown]
[5]
  T/C: 94 % of control [survivor count not shown]
[6]
  T/C: 105 % of control [survivor count not shown]

## CN(C)CC1CCCCCC1OC(=O)C(O)(c1ccccc1)c1ccccc1 (stereo not given)
dose: 10.0 mg/kg/injection, schedule: Q01DX001 (ip), vehicle: other
  T/C: 96 % of control [survivor count not shown]
dose: 19.0 mg/kg/injection, schedule: Q01DX001 (ip), vehicle: other
  T/C: 98 % of control [survivor count not shown]
dose: 38.0 mg/kg/injection, schedule: Q01DX001 (ip), vehicle: other
  T/C: 105 % of control [survivor count not shown]

## CN(C)CC1(COC(=O)C(O)(c2ccccc2)c2ccccc2)CCCCC1
dose: 12.0 mg/kg/injection, schedule: Q04DX003 (ip), vehicle: Klucel (hydroxypropylcellulose) (HPC)
  T/C: 106 % of control [survivor count not shown]
[4]
  T/C: 93 % of control [survivor count not shown]
[6]
  T/C: 107 % of control [survivor count not shown]

## CC(C)(O)C#CCN(CCCl)CCCl
dose: 0.37 mg/kg/injection, schedule: Q01DX001 (ip), vehicle: saline
  T/C: 98 % of control [survivor count not shown]
dose: 0.37 mg/kg/injection, schedule: Q01DX009 (ip), vehicle: saline
  T/C: 100 % of control [survivor count not shown]
dose: 0.75 mg/kg/injection, schedule: Q01DX001 (ip), vehicle: saline
  T/C: 102 % of control [survivor count not shown]
[7]
  T/C: 98 % of control [survivor count not shown]
dose: 1.5 mg/kg/injection, schedule: Q01DX001 (ip), vehicle: saline
  T/C: 100 % of control [survivor count not shown]
[8]
  T/C: 105 % of control [survivor count not shown]
[9]
  T/C: 105 % of control [survivor count not shown]
dose: 6.0 mg/kg/injection, schedule: Q01DX009 (ip), vehicle: saline
  T/C: 140 % of control [survivor count not shown]
dose: 12.0 mg/kg/injection, schedule: Q01DX009 (ip), vehicle: saline
  T/C: 130 % of control [survivor count not shown]

## O=C(OC1CCCN(CO)C1)C(O)(c1ccccc1)c1ccccc1 (stereo not given)
dose: 25.0 mg/kg/injection, schedule: Q04DX003 (ip), vehicle: saline
  T/C: 98 % of control [survivor count not shown]
dose: 50.0 mg/kg/injection, schedule: Q04DX003 (ip), vehicle: saline
  T/C: 104 % of control [survivor count not shown]
[10]
  T/C: 96 % of control [survivor count not shown]

## ClCCNCCCl.O=C(O)c1cccc2ccccc12
[2]
  T/C: 92 % of control [survivor count not shown]
[3]
  T/C: 109 % of control [survivor count not shown]
dose: 200.0 mg/kg/injection, schedule: Q04DX003 (ip), vehicle: saline with Tween-80
  T/C: 147 % of control [survivor count not shown]

## O=C(OC1CC2CCCC(C1)N2Cc1ccccc1)C(O)(c1ccccc1)c1ccccc1 (stereo not given)
dose: 100.0 mg/kg/injection, schedule: Q01DX001 (ip), vehicle: Klucel (hydroxypropylcellulose) (HPC)
  T/C: 101 % of control [survivor count not shown]
dose: 200.0 mg/kg/injection, schedule: Q01DX001 (ip), vehicle: Klucel (hydroxypropylcellulose) (HPC)
  T/C: 97 % of control [survivor count not shown]
dose: 400.0 mg/kg/injection, schedule: Q01DX001 (ip), vehicle: Klucel (hydroxypropylcellulose) (HPC)
  T/C: 92 % of control [survivor count not shown]

## O=C(OCC1CCCN2CCCCC12)C(O)(c1ccccc1)c1ccccc1 (stereo not given)
dose: 6.25 mg/kg/injection, schedule: Q04DX003 (ip), vehicle: saline with Tween-80
  T/C: 96 % of control [survivor count not shown]
dose: 12.5 mg/kg/injection, schedule: Q04DX003 (ip), vehicle: saline with Tween-80
  T/C: 102 % of control [survivor count not shown]
[1]
  T/C: 96 % of control [survivor count not shown]

## CN(C)CC1CCC(OC(=O)C(O)(c2ccccc2)C2CCCC2)C(CN(C)C)N1 (stereo not given)
[10]
  T/C: 95 % of control [survivor count not shown]
dose: 200.0 mg/kg/injection, schedule: Q04DX003 (ip), vehicle: saline
  T/C: 95 % of control [survivor count not shown]
dose: 400.0 mg/kg/injection, schedule: Q04DX003 (ip), vehicle: saline
  T/C: 101 % of control [survivor count not shown]

## ClCCN1CCCC1CCl (stereo not given)
[7]
  T/C: 105 % of control [survivor count not shown]
dose: 1.3 mg/kg/injection, schedule: Q01DX009 (ip), vehicle: saline with Tween-80
  T/C: 112 % of control [survivor count not shown]
[8]
  T/C: 115 % of control [survivor count not shown]
dose: 1.56 mg/kg/injection, schedule: Q04DX003 (ip), vehicle: saline
  T/C: 105 % of control [survivor count not shown]
dose: 2.0 mg/kg/injection, schedule: Q01DX009 (ip), vehicle: saline with Tween-80
  T/C: 129 % of control [survivor count not shown]
dose: 2.0 mg/kg/injection, schedule: Q01DX009 (ip), vehicle: saline
  T/C: 128 % of control [survivor count not shown]
dose: 3.0 mg/kg/injection, schedule: Q01DX009 (ip), vehicle: saline with Tween-80
  T/C: 100 % of control [survivor count not shown]
[9]
  T/C: 113 [survivor count not shown] and 125 % of control [survivor count not shown]
dose: 3.13 mg/kg/injection, schedule: Q04DX003 (ip), vehicle: saline
  T/C: 122 % of control [survivor count not shown]
dose: 4.5 mg/kg/injection, schedule: Q01DX009 (ip), vehicle: saline
  T/C: 94 % of control [survivor count not shown]
dose: 6.25 mg/kg/injection, schedule: Q04DX003 (ip), vehicle: saline
  T/C: 143 % of control [survivor count not shown]
dose: 12.5 mg/kg/injection, schedule: Q04DX003 (ip), vehicle: saline
  T/C: 103 % of control [survivor count not shown]

## NC(C#CCN(CCCl)CCCl)C1CCCCC1 (stereo not given)
[5]
  T/C: 95 % of control [survivor count not shown]
dose: 100.0 mg/kg/injection, schedule: Q01DX009 (ip), vehicle: Klucel (hydroxypropylcellulose) (HPC)
  T/C: 104 % of control [survivor count not shown]

## CN1CCC(OC(=O)C(O)(C#Cc2ccccc2)c2ccccc2)CC1 (stereo not given)
dose: 100.0 mg/kg/injection, schedule: Q04DX003 (ip), vehicle: gum acacia
  T/C: 99 % of control [survivor count not shown]
dose: 200.0 mg/kg/injection, schedule: Q04DX003 (ip), vehicle: gum acacia
  T/C: 94 % of control [survivor count not shown]
dose: 400.0 mg/kg/injection, schedule: Q04DX003 (ip), vehicle: gum acacia
  T/C: 97 % of control [survivor count not shown]

## Cc1cc2nc(CN(CCCl)CCCl)[nH]c2cc1C
dose: 3.3 mg/kg/injection, schedule: Q01DX010 (ip), vehicle: carboxymethylcellulose (CMC)
  T/C: 93 % of control [survivor count not shown]
dose: 7.5 mg/kg/injection, schedule: Q01DX010 (ip), vehicle: carboxymethylcellulose (CMC)
  T/C: 90 % of control [survivor count not shown]
dose: 15.0 mg/kg/injection, schedule: Q01DX010 (ip), vehicle: carboxymethylcellulose (CMC)
  T/C: 92 % of control [survivor count not shown]
dose: 30.0 mg/kg/injection, schedule: Q01DX010 (ip), vehicle: carboxymethylcellulose (CMC)
  T/C: 150 % of control [survivor count not shown]
dose: 176.0 mg/kg/injection, schedule: Q01DX001 (ip), vehicle: carboxymethylcellulose (CMC)
  T/C: 127 % of control [survivor count not shown]
dose: 264.0 mg/kg/injection, schedule: Q01DX001 (ip), vehicle: carboxymethylcellulose (CMC)
  T/C: 118 % of control [survivor count not shown]
